Test results from publication PMC4728392.
No constants are given. Whether binding was seen depends on the method and setting. Binding seen in cells or lysates may run through a third protein. Some results given as binding are weak or reduced against the parent protein; the word gives no strength.

Chains of the proteins cited; added tags and fusions are not shown. Residues count along the entry.
UniProt P10809, residues 27-573: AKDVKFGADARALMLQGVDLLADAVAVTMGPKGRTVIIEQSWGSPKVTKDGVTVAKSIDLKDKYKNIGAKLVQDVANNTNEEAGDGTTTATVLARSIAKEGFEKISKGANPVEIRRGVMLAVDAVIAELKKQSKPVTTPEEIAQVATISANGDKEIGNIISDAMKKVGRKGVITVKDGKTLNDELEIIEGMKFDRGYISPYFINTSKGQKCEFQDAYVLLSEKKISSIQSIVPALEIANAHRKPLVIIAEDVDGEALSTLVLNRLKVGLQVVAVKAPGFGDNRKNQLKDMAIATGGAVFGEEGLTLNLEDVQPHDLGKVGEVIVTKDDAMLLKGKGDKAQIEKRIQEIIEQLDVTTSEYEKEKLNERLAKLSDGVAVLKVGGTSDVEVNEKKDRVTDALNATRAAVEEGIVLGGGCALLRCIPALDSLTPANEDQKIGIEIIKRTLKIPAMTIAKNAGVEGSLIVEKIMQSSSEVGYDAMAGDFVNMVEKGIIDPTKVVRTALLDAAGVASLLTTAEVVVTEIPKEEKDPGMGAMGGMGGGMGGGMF

Molecular target: Heat shock protein 60 (UniProt P10809)
Test: co-IP; 500 μg protein of total lysate of C2C12 cells transfected with pCMV6-Entry-HSPD1 (pcDNA3.1 as negative control); rabbit polyclonal anti-HSP60 (H-300) overnight at 4 °C, Sepharose A beads, washes with isotonic lysis buffer; blot with anti-PGC1α (ST1202)

B1: peroxisome proliferator-activated receptor gamma coactivator 1 alpha, isoform α1 (113 kDa) (protein, UniProt O70343 1-797)
chain: MAWDMCSQDSVWSDIECAALVGEDQPLCPDLPELDLSELDVNDLDTDSFLGGLKWCSDQSEIISNQYNNEPANIFEKIDEENEANLLAVLTETLDSLPVDEDGLPSFDALTDGAVTTDNEASPSSMPDGTPPPQEAEEPSLLKKLLLAPANTQLSYNECSGLSTQNHAANHTHRIRTNPAIVKTENSWSNKAKSICQQQKPQRRPCSELLKYLTTNDDPPHTKPTENRNSSRDKCASKKKSHTQPQSQHAQAKPTTLSLPLTPESPNDPKGSPFENKTIERTLSVELSGTAGLTPPTTPPHKANQDNPFKASPKLKPSCKTVVPPPTKRARYSECSGTQGSHSTKKGPEQSELYAQLSKSSGLSRGHEERKTKRPSLRLFGDHDYCQSLNSKTDILINISQELQDSRQLDFKDASCDWQGHICSSTDSGQCYLRETLEASKQVSPCSTRKQLQDQEIRAELNKHFGHPCQAVFDDKSDKTSELRDGDFSNEQFSKLPVFINSGLAMDGLFDDSEDESDKLSYPWDGTQPYSLFDVSPSCSSFNSPCRDSVSPPKSLFSQRPQRMRSRSRSFSRHRSCSRSPYSRSRSRSPGSRSSSRSCYYYESSHYRHRTHRNSPLYVRSRSRSPYSRRPRYDSYEAYEHERLKRDEYRKEHEKRESERAKQRERQKQKAIEERRVIYVGKIRPDTTRTELRDRFEVFGEIEECTVNLRDDGDSYGFITYRYTCDAFAALENGYTLRRSNETDFELYFCGRKQFFKSNYADLDTNSDDFDPASTKSKYDSLDFDSLLKEAQRSLRR
**Q.** How did the binding turn out when B1 was run?
**A.** Its binding is “binds”.
